Results are given in words; binding and its absence hold for the method and conditions named. Some results given as binding are weak or reduced against the parent protein; the word gives no strength. For part of these data: Tags and fused reporters may be left off the sequences shown. Each block holds one binder with its values, some of them ahead of it.
Experiments:
[1] = target: T1, Ring1B (mouse, UniProt Q9CQJ4 2-336); assay: co-expression in Sf9 cells, anti-FLAG purification (FIG. 7B); association within a complex
T1 construct: mature; Untagged protein: 35S-labelled in vitro translation product (pCITE, full-length cDNA) in the GST pull-down; baculovirus-expressed in Sf9 cells in the co-purifications; also called Ring2; Ring2/Ring1B
T1 sequence (looked up): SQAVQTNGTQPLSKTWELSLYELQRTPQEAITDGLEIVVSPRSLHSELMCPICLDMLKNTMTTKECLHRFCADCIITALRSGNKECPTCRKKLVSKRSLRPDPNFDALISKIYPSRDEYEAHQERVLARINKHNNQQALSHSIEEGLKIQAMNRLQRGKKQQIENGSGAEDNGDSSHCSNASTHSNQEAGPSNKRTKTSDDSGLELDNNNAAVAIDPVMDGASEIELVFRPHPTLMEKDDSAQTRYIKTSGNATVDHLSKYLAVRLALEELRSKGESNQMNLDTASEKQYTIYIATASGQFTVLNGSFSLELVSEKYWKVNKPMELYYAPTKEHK

[2] = target: T2, Ring1A (mouse, UniProt O35730 1-406); assay: as above
T2 construct: mature; Untagged protein: 35S-labelled in vitro translation product in the GST pull-down; baculovirus-expressed in Sf9 cells in the co-purifications; also called Ring1/Ring1A
T2 sequence (looked up): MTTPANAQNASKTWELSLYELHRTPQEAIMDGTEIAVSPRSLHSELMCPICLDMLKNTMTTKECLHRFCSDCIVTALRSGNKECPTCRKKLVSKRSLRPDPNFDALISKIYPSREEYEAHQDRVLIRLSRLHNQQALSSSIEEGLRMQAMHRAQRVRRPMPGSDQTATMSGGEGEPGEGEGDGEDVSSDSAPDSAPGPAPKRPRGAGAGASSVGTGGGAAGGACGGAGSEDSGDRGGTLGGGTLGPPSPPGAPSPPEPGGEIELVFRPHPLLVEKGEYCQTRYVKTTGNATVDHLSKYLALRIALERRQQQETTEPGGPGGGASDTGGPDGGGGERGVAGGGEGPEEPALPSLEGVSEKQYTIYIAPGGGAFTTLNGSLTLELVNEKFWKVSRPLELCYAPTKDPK

[3] = target: T1, Ring1B; assay: two-step purification (anti-FLAG affinity, gel filtration) from Sf9 cells, silver stain (FIG. 10A); association within a complex
[4] = target: T2, Ring1A; assay: as above
[5] = target: T3, Pc3 (mouse) (UniProt Q9QXV1); assay: as above
T3 sequence (looked up): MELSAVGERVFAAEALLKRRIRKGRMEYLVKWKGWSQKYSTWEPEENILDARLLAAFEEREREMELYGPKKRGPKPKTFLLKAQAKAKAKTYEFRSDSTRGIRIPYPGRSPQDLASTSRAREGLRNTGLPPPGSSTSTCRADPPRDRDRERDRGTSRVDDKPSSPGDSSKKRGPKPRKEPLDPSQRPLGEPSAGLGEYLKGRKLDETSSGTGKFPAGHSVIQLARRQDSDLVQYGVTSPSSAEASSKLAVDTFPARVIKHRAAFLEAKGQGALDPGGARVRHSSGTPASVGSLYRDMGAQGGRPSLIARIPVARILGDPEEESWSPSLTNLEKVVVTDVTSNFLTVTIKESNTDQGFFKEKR

[6] = target: T1, Ring1B; assay: co-infection of Sf9 cells, anti-FLAG affinity chromatography and gel filtration, silver stain (FIG. 6B); association within a complex
[7] = target: T2, Ring1A; assay: as above
[8] = target: T3, Pc3 (mouse); assay: as above
[9] = target: T1, Ring1B; assay: co-expression in Sf9 cells, anti-FLAG affinity purification and S6 gel filtration, silver stain (FIG. 6B); association within a complex
[10] = target: T2, Ring1A; assay: as above
[11] = target: T3, Pc3 (mouse); assay: as above
[12] = target: T1, Ring1B; assay: silver stained gel of the reconstituted Mel-18 containing complex (FIG. 13B)
[13] = target: T2, Ring1A; assay: as above
[14] = target: T3, Pc3 (mouse); assay: as above
[15] = target: T1, Ring1B; assay: co-infection of Sf9 cells, FLAG-antibody beads and gel filtration, silver stain (FIG. 13B); association within a complex
[16] = target: T2, Ring1A; assay: as above
[17] = target: T3, Pc3 (mouse); assay: as above
[18] = target: T1, Ring1B; assay: purification of two-component complexes from infected insect cells (FIG. 13D)

binding [1]: binds | binding [2]: binds | binding [3]: binds | binding [4]: binds | binding [5]: binds | binding [6]: binds | binding [7]: binds | binding [8]: binds | binding [9]: binds | binding [10]: binds | binding [11]: binds
B1: FLAG®-Bmi-1 (protein, mouse)
chain: DYKDDDDKMHRTTRIKITELNPHLMCVLCGGYFIDATTIIECLHSFCKTCIVRYLETSKYCPICDVQVHKTRPLLNIRSDKTLQDIVYKLVPGLFKNEMKRRRDFYAAHPSADAANGSNEDRGEVADEEKRIITDDEIISLSIEFFDQSRLDRKVNKEKPKEEVNDKRYLRCPAAMTVMHLRKFLRSKMDIPNTFQIDVMYEEEPLKDYYTLMDIAYIYTWRRNGPLPLKYRVRPTCKRMKMSHQRDGLTNAGELESDSGSDKANSPAGGVPSTSSCLPSPSTPVQSPHPQFPHISSTMNGTSNSPSANHQSSFASRPRKSSLNGSSATSSG

binding [12]: binds | binding [13]: binds | binding [14]: binds | binding [15]: binds | binding [16]: binds | binding [17]: binds
B2: Flag-Mel-18 (protein)
chain: DYKDDDDKMHRTTRIKITELNPHLMCALCGGYFIDATTIVECLHSFCKTCIVRYLETNKYCPMCDVQVHKTRPLLSIRSDKTLQDIVYKLVPGLFKDEMKRRRDFYAAYPLTEVPNGSNEDRGEVLEQEKGALGDDEIVSLSIEFYEGVRDREEKKNLTENGDGDKEKTGVRFLRCPAAMTVMHLAKFLRNKMDVPSKYKVEILYEDEPLKEYYTLMDIAYIYPWRRNGPLPLKYRVQPACKRLTLPTVPTPSEGTNTSGASECESVSDKAPSPATLPATSSSLPSPATPSHGSPSSHGPPATHPTSPTPPSTAAGTTTATNGGTSNCLQTPSSTSRGRKMTVNGAPCPP

binding [18]: binds
B3: Mel-18 (protein, UniProt P23798 1-342, looked up)
chain: MHRTTRIKITELNPHLMCALCGGYFIDATTIVECLHSFCKTCIVRYLETNKYCPMCDVQVHKTRPLLSIRSDKTLQDIVYKLVPGLFKDEMKRRRDFYAAYPLTEVPNGSNEDRGEVLEQEKGALGDDEIVSLSIEFYEGVRDREEKKNLTENGDGDKEKTGVRFLRCPAAMTVMHLAKFLRNKMDVPSKYKVEILYEDEPLKEYYTLMDIAYIYPWRRNGPLPLKYRVQPACKRLTLPTVPTPSEGTNTSGASECESVSDKAPSPATLPATSSSLPSPATPSHGSPSSHGPPATHPTSPTPPSTAAGTTTATNGGTSNCLQTPSSTSRGRKMTVNGAPCPP

— US20080248458A1 (UNIVERSITY OF NORTH CAROLINA AT CHAPEL HILL, published 2008)
